Reference: patent US9173935B2, “Phospholipid drug analogs” (Telormedix SA, priority 2010, dated 2015)
At least one structure is not confirmed: it was looked up by name or label, or the drawing left a doubt.

Tested on: recombinant protein antigens from Plasmodium falciparum and Mycobacterium ulcerans
Assay: Pilot immunization study with adjuvanted protein antigens
Assay type: in vivo, mice
Settings: three s.c. immunizations, 20 micrograms antigen with 10 nMol adjuvant
Experimental: A pilot immunization study was conducted using Compound A and SC12 adjuvanted protein antigens. The immunization experiments were performed with two recombinant proteins expressed in E. coli. One antigen was derived from the malaria parasite Plasmodium falciparum and the other one from Mycobacterium ulcerans, which cause the ulcerative skin disease Buruli ulcer.

## CCCCCCCC/C=C\CCCCCCCC(=O)OCC(COP(=O)(O)OCCNC(=O)c1ccc(Cn2c(=O)[nH]c3c(N)nc(OCCOC)nc32)cc1)OC(=O)CCCCCCC/C=C\CCCCCCCC (stereo not shown) [Compound A, 2-(4-((6-amino-2-(2-methoxyethoxy)-8-oxo-7H-purin-9(8H)-yl)methyl)benzamido)ethyl 2,3-bis(oleoyloxy)propyl phosphate]
  IgG responses against target antigens: all 20 immunized mice had developed IgG responses
